The list is a part of this screen's results and no random one: it is rich in T/C values a quarter to a half above the control, in often repeated tests (any T/C) and in doses without a T/C. Further doses and runs are listed elsewhere. T/C is the treated group as % of the vehicle group. Some doses have a count of surviving animals in place of a T/C: the source holds a T/C of zero for them, seemingly a mark for toxic or unscored doses. Some doses without a T/C left all or most animals alive at the check, yet need not have been tolerated: survival well below the control is almost never listed, so the zero probably covers shortened survival too. Survivors were counted at the toxicity check, usually on the fifth day, unless a day is given; later deaths do not show. Schedule codes are those of the source, read here as Q, the interval in days (D) or hours (H), X, the number of doses. Some entries were tested several times; the values are given in rising order. Some structures stand for samples that the source files as different forms (salt, stereo form or complex); doses refer to the form tested. Counts like (3×) count equal records among those shown. For survival time, the PubChem record calls one and a half times the control and up active, and a quarter to a half above the control has no call in these data; cut-offs in other NCI protocols can differ. Some T/C values are followed by the survivors on the day toxicity was checked, most often the fifth; without a count, all were alive then.
Test system: P388 leukemia ip, CD2F1 mice, survival T/C
Test: NCI In Vivo Anticancer Drug Screen. Data for tumor model P388 Leukemia (intraperitoneal) in CD2F1 (CDF1) mice
Conditions: T/C endpoint: median survival time, higher T/C = longer survival
[1] = dose: 25.0 mg/kg/injection, schedule: Q01DX009 (ip), vehicle: saline with Tween-80
[2] = dose: 100.0 mg/kg/injection, schedule: Q01DX009 (ip), vehicle: saline with Tween-80
[3] = dose: 200.0 mg/kg/injection, schedule: Q01DX009 (ip), vehicle: saline with Tween-80
[4] = dose: 200.0 mg/kg/injection, schedule: Q01DX009 (ip), vehicle: saline
[5] = dose: 240.0 mg/kg/injection, schedule: Q01DX005 (ip), vehicle: Klucel (hydroxypropylcellulose) (HPC)
[6] = dose: 200.0 mg/kg/injection, schedule: Q01DX005 (ip), vehicle: Klucel (hydroxypropylcellulose) (HPC)
[7] = dose: 50.0 mg/kg/injection, schedule: Q01DX005 (ip), vehicle: Klucel (hydroxypropylcellulose) (HPC)
[8] = dose: 100.0 mg/kg/injection, schedule: Q01DX005 (ip), vehicle: Klucel (hydroxypropylcellulose) (HPC)

COc1cccc2c1NC(OC)C1CC(/C=C/C(=O)N(C)C)=CN1C2=O (centres undefined)
T/C (dose: 40.0 micrograms/kg/injection, schedule: Q01DX005 (ip), vehicle: saline with Tween-80): 135 % of control
T/C (dose: 80.0 micrograms/kg/injection, schedule: Q01DX005 (ip), vehicle: saline with Tween-80): 129 and 132 % of control
T/C (dose: 160.0 micrograms/kg/injection, schedule: Q01DX005 (ip), vehicle: saline with Tween-80): 133 and 137 % of control
T/C (dose: 320.0 micrograms/kg/injection, schedule: Q01DX005 (ip), vehicle: saline with Tween-80): 136 % of control
survivor count (dose: 640.0 micrograms/kg/injection, schedule: Q01DX005 (ip), vehicle: saline with Tween-80): 2 of 6
survivor count (dose: 1280.0 micrograms/kg/injection, schedule: Q01DX005 (ip), vehicle: saline with Tween-80): 0 of 6

O=[N+]([O-])c1cn[n+]([O-])c2ccccc12
T/C [1]: 130 and 138 % of control
T/C (dose: 50.0 mg/kg/injection, schedule: Q01DX009 (ip), vehicle: saline with Tween-80): 142 % of control
survivor count [2]: 1 of 6 and 4 of 6
survivor count [3]: 0 of 6

ClCC1CSC2(CCCCC2)O1 (centres undefined)
T/C [3]: 129 % of control
survivor count (dose: 400.0 mg/kg/injection, schedule: Q01DX009 (ip), vehicle: saline with Tween-80): 0 of 6

CCN(CC)CCNc1cc(C)nc2c1ccc1c2ccc2c(NCCN(CC)CC)cc(C)nc21
survivor count (dose: 100.0 mg/kg/injection, schedule: Q01DX009 (ip), vehicle: water): 0 of 6

O=C(O)c1c[nH]c2cc(-n3cccc3)ccc2c1=O
survivor count (dose: 120.0 mg/kg/injection, schedule: Q01DX005 (ip), vehicle: saline with Tween-80): 1 of 6
survivor count (dose: 240.0 mg/kg/injection, schedule: Q01DX005 (ip), vehicle: saline with Tween-80): 0 of 6

CCCCCCC1(/C=C/c2ccc(Cl)c(Cl)c2)OCCS1 (centres undefined)
survivor count (dose: 100.0 mg/kg/injection, schedule: Q01DX009 (ip), vehicle: saline): 1 of 6
survivor count [4]: 0 of 6

CCCCCCCCCCCCCCCCCC(=O)NN
survivor count (dose: 50.0 mg/kg/injection, schedule: Q04DX003 (ip), vehicle: saline with Tween-80): 6 of 6

C[P+]1(CCc2ccc(Cl)cc2)CC=CC1
survivor count (dose: 100.0 mg/kg/injection, schedule: Q04DX002 (ip), vehicle: saline): 4 of 6 and 5 of 6
survivor count (dose: 200.0 mg/kg/injection, schedule: Q04DX002 (ip), vehicle: saline): 1 of 6
survivor count (dose: 400.0 mg/kg/injection, schedule: Q04DX002 (ip), vehicle: saline): 1 of 6

Cn1c(=O)oc2cc(C(=O)CN3CCN(c4cccc(C(F)(F)F)c4)CC3)ccc21
survivor count [5]: 4 of 6

CC(=O)c1cc(-c2ccccn2)c(=O)n2ccccc12
survivor count [2]: 6 of 6
survivor count [3]: 3 of 6

CC(C)(C)c1cc2c(c(C(C)(C)C)c1)[O][Sb]([c]1ccccc1)([c]1ccccc1)([c]1ccccc1)[NH]2
survivor count [3]: 6 of 6

COc1cccc2c1C(=O)c1c(O)c3c(c(O)c1C2=O)C[C@@](O)(C(C)=O)C[C@@H]3OC1CC(N2CCOCC2)C(O)C(C)O1 (some centres undefined)
survivor count (dose: 1.56 mg/kg/injection, schedule: Q04DX003 (ip), vehicle: water): 3 of 6 on day 9
survivor count (dose: 3.13 mg/kg/injection, schedule: Q04DX003 (ip), vehicle: water): 0 of 6 on day 9
survivor count (dose: 6.25 mg/kg/injection, schedule: Q04DX003 (ip), vehicle: water): 0 of 6 on day 9 and 1 of 6 on day 9
survivor count (dose: 12.5 mg/kg/injection, schedule: Q04DX003 (ip), vehicle: water): 0 of 6 on day 9 and 1 of 6 on day 9
survivor count (dose: 25.0 mg/kg/injection, schedule: Q04DX003 (ip), vehicle: water): 0 of 6 on day 9 (2×)
survivor count (dose: 50.0 mg/kg/injection, schedule: Q04DX003 (ip), vehicle: water): 0 of 6 on day 9 (2×)
survivor count (dose: 100.0 mg/kg/injection, schedule: Q04DX003 (ip), vehicle: water): 0 of 6 on day 9
T/C (dose: 200.0 micrograms/kg/injection, schedule: Q04DX003 (ip), vehicle: water): 145 % of control

COC(=O)C1Cc2[nH]cnc2C(c2c(CO)cnc(C)c2O)N1 (centres undefined)
survivor count [6]: 3 of 6

S=P([S][Sn]([S]P(=S)(c1ccccc1)c1ccccc1)([c]1ccccc1)[c]1ccccc1)(c1ccccc1)c1ccccc1
T/C (dose: 6.25 mg/kg/injection, schedule: Q01DX005 (ip), vehicle: Klucel (hydroxypropylcellulose) (HPC)): 128 [5 of 6 alive] and 131 % of control
T/C (dose: 12.5 mg/kg/injection, schedule: Q01DX005 (ip), vehicle: Klucel (hydroxypropylcellulose) (HPC)): 141 and 143 % of control
survivor count (dose: 25.0 mg/kg/injection, schedule: Q01DX005 (ip), vehicle: Klucel (hydroxypropylcellulose) (HPC)): 3 of 6
survivor count [7]: 1 of 6
survivor count [8]: 1 of 6
survivor count [6]: 0 of 6

N#CN
survivor count [4]: 6 of 6

COc1ccc(CCNS(=O)(=O)c2c(C)c(C)c(C)c(C)c2C)cc1OC
survivor count [6]: 6 of 6

O=C1NC(c2ccccc2)N=C2Oc3ccccc3C=C12 (centres undefined)
survivor count (dose: 6.25 mg/kg/injection, schedule: Q01DX009 (ip), vehicle: saline with Tween-80): 6 of 6
T/C [1]: 130 % of control
T/C (dose: 25.0 mg/kg/injection, schedule: Q01DX009 (ip), vehicle: saline): 125 % of control

C=C(C(=O)N(C(C)C)C(C)C)C(C)C(C)(C)O (centres undefined)
survivor count (dose: 200.0 mg/kg/injection, schedule: Q04DX002 (ip), vehicle: Klucel (hydroxypropylcellulose) (HPC)): 0 of 6
survivor count (dose: 400.0 mg/kg/injection, schedule: Q04DX002 (ip), vehicle: Klucel (hydroxypropylcellulose) (HPC)): 0 of 6

C[n+]1ccc(/C(C#N)=N/O)cc1
survivor count (dose: 400.0 mg/kg/injection, schedule: Q01DX009 (ip), vehicle: Klucel (hydroxypropylcellulose) (HPC)): 1 of 6

S=C(Nc1ccc(N=Nc2ccccc2)cc1)SCc1ccc(Cl)cc1
survivor count (dose: 50.0 mg/kg/injection, schedule: Q01DX009 (ip), vehicle: suspension in saline): 4 of 6
survivor count (dose: 100.0 mg/kg/injection, schedule: Q01DX009 (ip), vehicle: suspension in saline): 6 of 6

COc1ccc(/C=N/c2oc(-c3ccccc3)c(-c3ccccc3)c2-c2ccc(OC)cc2)cc1
survivor count (dose: 50.0 mg/kg/injection, schedule: Q01DX005 (ip), vehicle: saline with Tween-80): 6 of 6
survivor count (dose: 100.0 mg/kg/injection, schedule: Q01DX005 (ip), vehicle: saline with Tween-80): 6 of 6
survivor count (dose: 200.0 mg/kg/injection, schedule: Q01DX005 (ip), vehicle: saline with Tween-80): 6 of 6

CC(C)(C)/C(=N\Nc1ccc([N+](=O)[O-])cc1[N+](=O)[O-])c1ccccc1
survivor count (dose: 25.0 mg/kg/injection, schedule: Q01DX001 (ip), vehicle: saline with Tween-80): 0 of 6
survivor count (dose: 50.0 mg/kg/injection, schedule: Q01DX001 (ip), vehicle: saline with Tween-80): 0 of 6
survivor count (dose: 100.0 mg/kg/injection, schedule: Q01DX001 (ip), vehicle: saline with Tween-80): 0 of 6

Cc1ccc(CC2C=CCN2)cc1 (centres undefined)
survivor count (dose: 400.0 mg/kg/injection, schedule: Q01DX001 (ip), vehicle: distilled water + alcohol): 2 of 6

CC(=O)C1CCC2=C(C1)C(=O)c1cc3c(cc1C2=O)C1(c2ccccc2)OC3(c2ccccc2)C2C(=O)N(c3ccccc3)C(=O)C21 (centres undefined)
survivor count [5]: 6 of 6

C=C(C#N)N(C)c1ccccc1
survivor count [7]: 0 of 6
survivor count [8]: 0 of 6
survivor count [6]: 0 of 6

CCCCCCCCCCCCCCCC(=O)NC1CC(OC2CC(O)(C(C)=O)Cc3c(O)c4c(c(O)c32)C(=O)c2c(OC)cccc2C4=O)OC(C)C1O (centres undefined)
T/C (dose: 6.0 mg/kg/injection, schedule: Q01DX009 (ip), vehicle: other): 125 % of control
T/C (dose: 12.0 mg/kg/injection, schedule: Q01DX009 (ip), vehicle: other): 125 % of control

Cc1ccc(-n2c(COc3c(C)cccc3C)n[nH]c2=S)cc1
survivor count [8]: 6 of 6
